Measurements as given in patent US10849958B2, “Knee pain evaluation and management via WOMAC and KOOS systems” (ORTHOTROPHIX, INC., priority 2017, dated 2020).
At least one peptide structure holds a part that was inferred or is arguable (an end, a ring closure or a residue). Ends that are not written are not given here.

Experiments:
[1] = test system: goat model of standardized large cartilage defects; conditions: four weekly intra-articular injections, 125 mg and 250 mg; 6 months post-surgery; histologically confirmed; cited from earlier work
[2] = test system: subjects with bilateral patello-femoral knee osteoarthritis; test: Randomized double-blind placebo-controlled clinical study of TPX-100, KOOS/WOMAC patient reported outcomes, Index vs Control knee; format: in vivo, human; conditions: for Severity of pain in other activities or statuses (other than going up or down stairs and bending knee fully), Index vs Control knees: any time point; for Severity of pain going up or down stairs, Index knees as compared to Control knees: p=0.004, FIG. 8; for Frequency of overall knee pain (Question #1), Index knees compared with Control knees: p=0.04; for Knee functions, KOOS ADL (and WOMAC function), Index knees as compared to Control knees: at both 6 and 12 month time points, FIG. 12
[3] = 200 mg, 4 weekly intra-articular doses
[4] = 200 mg, 4 weekly intra-articular doses, listed as peptide of SEQ ID No. 1
[5] = 200 mg, 4 weekly intra-articular doses, at 12 months
[6] = 200 mg, 4 weekly intra-articular doses, at 12 months, listed as peptide of SEQ ID No. 1
[7] = TPX-100 treated knees, 200 mg intra-articular, 4 once-weekly doses, score 0-4, negative = severity decreased

TDLQERGDNDISPFSGDGQPFKD-NH2 [TPX-100]
Articular cartilage regeneration compared to the vehicle control group [1]: statistically significant articular cartilage regeneration | Severity of pain bending knee fully, Index knees as compared to Control knees ([2]; 200 mg, 4 weekly intra-articular doses, P=0.07, FIG. 6): near statistically significant pain alleviation | Severity of pain in other activities or statuses (other than going up or down stairs and bending knee fully), Index vs Control knees [2, 3]: did not show statistically significant improvements | Severity of pain in other activities or statuses (other than going up or down stairs and bending knee fully), Index vs Control knees [2, 4]: did not show pain alleviation with statistical significance or trend | KOOS Sports and Recreation subscale, Index knees as compared to Control knees ([2]; 200 mg, 4 weekly intra-articular doses, at 6 months): clinically meaningful and statistically significant improvement | KOOS knee related quality of life (QOL) subscale, Index knees as compared to Control knees [2, 5]: clinically meaningful and statistically significant improvement | Total KOOS pain (KOOS Pain subscale), Index knees as compared to Control knees [2, 5]: clinically meaningful improvement | Severity of pain going up or down stairs, Index knees as compared to Control knees [2, 5]: highly significant | Severity of pain going up or down stairs, Index knees as compared to Control knees [2, 6]: statistically significant improvement | Frequency of overall knee pain (Question #1), Index knees compared with Control knees [2, 5]: significantly improved | Frequency of overall knee pain (Question #1), Index knees compared with Control knees [2, 6]: significantly reduced | Knee functions, KOOS ADL (and WOMAC function), Index knees as compared to Control knees [2, 3]: clinically meaningful and statistically significant (p<0.05) improvement | Knee functions, KOOS ADL (and WOMAC function), Index knees as compared to Control knees [2, 4]: clinically meaningful and highly statistically significant (p=0.008) improvement | Total KOOS pain scores, treated knees vs placebo treated knees ([2]; 200 mg, 4 weekly intra-articular doses, until 6 months after the treatment): very similar | KOOS Pain Question 1 (How often do you experience RIGHT/LEFT knee pain?) score change from baseline to 12 months, Index ([2]; TPX-100 treated knees, 200 mg intra-articular, 4 once-weekly doses, score 0-4, negative = frequency decreased): −0.62 | KOOS Pain Question 2 (Twisting/pivoting on your knee) score change from baseline to 12 months, Index [2, 7]: −0.19 | KOOS Pain Question 3 (Straightening knee fully moving) score change from baseline to 12 months, Index [2, 7]: −0.30 | KOOS Pain Question 4 (Bending knee fully) score change from baseline to 12 months, Index [2, 7]: −0.45 | KOOS Pain Question 5 (Walking on flat surface) score change from baseline to 12 months, Index [2, 7]: −0.25 | KOOS Pain Question 6 (Going up or down stairs) score change from baseline to 12 months, Index [2, 7]: −0.51 | KOOS Pain Question 7 (At night while in bed) score change from baseline to 12 months, Index [2, 7]: −0.19 | KOOS Pain Question 8 (Sitting or lying) score change from baseline to 12 months, Index [2, 7]: −0.26 | KOOS Pain Question 9 (Standing upright) score change from baseline to 12 months, Index [2, 7]: −0.34 | KOOS Pain Question 6 (Going up or down stairs) Difference = [Index score change] − [Control score change] ([2]; baseline to 12 months, 200 mg TPX-100 vs placebo knee, more negative = more improvement, p-value 0.004): −0.33 | KOOS Pain Question 1 (How often do you experience RIGHT/LEFT knee pain?) Difference = [Index score change] − [Control score change] ([2]; baseline to 12 months, 200 mg TPX-100 vs placebo knee, more negative = more improvement, p-value 0.04): −0.26 | KOOS Pain Question 4 (Bending knee fully) Difference = [Index score change] − [Control score change] ([2]; baseline to 12 months, 200 mg TPX-100 vs placebo knee, more negative = more improvement, p-value 0.07): −0.24 | KOOS Pain Question 9 (Standing upright) Difference = [Index score change] − [Control score change] ([2]; baseline to 12 months, 200 mg TPX-100 vs placebo knee, more negative = more improvement, p-value 0.15): −0.16 | KOOS Pain Question 3 (Straightening knee fully moving) Difference = [Index score change] − [Control score change] ([2]; baseline to 12 months, 200 mg TPX-100 vs placebo knee, more negative = more improvement, p-value 0.27): −0.12 | KOOS Pain Question 5 (Walking on flat surface) Difference = [Index score change] − [Control score change] ([2]; baseline to 12 months, 200 mg TPX-100 vs placebo knee, more negative = more improvement, p-value 0.29): −0.12 | KOOS Pain Question 2 (Twisting/pivoting on your knee) Difference = [Index score change] − [Control score change] ([2]; baseline to 12 months, 200 mg TPX-100 vs placebo knee, more negative = more improvement, p-value 0.52): −0.09 | KOOS Pain Question 8 (Sitting or lying) Difference = [Index score change] − [Control score change] ([2]; baseline to 12 months, 200 mg TPX-100 vs placebo knee, more negative = more improvement, p-value 0.84): −0.02 | KOOS Pain Question 7 (At night while in bed) Difference = [Index score change] − [Control score change] ([2]; baseline to 12 months, 200 mg TPX-100 vs placebo knee, more negative = more improvement, p-value 1.00): 0.00
